Measurements reported in the supplement of paper PMC10849652.
Some of the results follow.

Protein sequences, listed by entry. Tags and fused reporters are not part of them. Lines headed by an entry give the natural chain unless they say otherwise; changes in a name come on top.
UniProt Q13439: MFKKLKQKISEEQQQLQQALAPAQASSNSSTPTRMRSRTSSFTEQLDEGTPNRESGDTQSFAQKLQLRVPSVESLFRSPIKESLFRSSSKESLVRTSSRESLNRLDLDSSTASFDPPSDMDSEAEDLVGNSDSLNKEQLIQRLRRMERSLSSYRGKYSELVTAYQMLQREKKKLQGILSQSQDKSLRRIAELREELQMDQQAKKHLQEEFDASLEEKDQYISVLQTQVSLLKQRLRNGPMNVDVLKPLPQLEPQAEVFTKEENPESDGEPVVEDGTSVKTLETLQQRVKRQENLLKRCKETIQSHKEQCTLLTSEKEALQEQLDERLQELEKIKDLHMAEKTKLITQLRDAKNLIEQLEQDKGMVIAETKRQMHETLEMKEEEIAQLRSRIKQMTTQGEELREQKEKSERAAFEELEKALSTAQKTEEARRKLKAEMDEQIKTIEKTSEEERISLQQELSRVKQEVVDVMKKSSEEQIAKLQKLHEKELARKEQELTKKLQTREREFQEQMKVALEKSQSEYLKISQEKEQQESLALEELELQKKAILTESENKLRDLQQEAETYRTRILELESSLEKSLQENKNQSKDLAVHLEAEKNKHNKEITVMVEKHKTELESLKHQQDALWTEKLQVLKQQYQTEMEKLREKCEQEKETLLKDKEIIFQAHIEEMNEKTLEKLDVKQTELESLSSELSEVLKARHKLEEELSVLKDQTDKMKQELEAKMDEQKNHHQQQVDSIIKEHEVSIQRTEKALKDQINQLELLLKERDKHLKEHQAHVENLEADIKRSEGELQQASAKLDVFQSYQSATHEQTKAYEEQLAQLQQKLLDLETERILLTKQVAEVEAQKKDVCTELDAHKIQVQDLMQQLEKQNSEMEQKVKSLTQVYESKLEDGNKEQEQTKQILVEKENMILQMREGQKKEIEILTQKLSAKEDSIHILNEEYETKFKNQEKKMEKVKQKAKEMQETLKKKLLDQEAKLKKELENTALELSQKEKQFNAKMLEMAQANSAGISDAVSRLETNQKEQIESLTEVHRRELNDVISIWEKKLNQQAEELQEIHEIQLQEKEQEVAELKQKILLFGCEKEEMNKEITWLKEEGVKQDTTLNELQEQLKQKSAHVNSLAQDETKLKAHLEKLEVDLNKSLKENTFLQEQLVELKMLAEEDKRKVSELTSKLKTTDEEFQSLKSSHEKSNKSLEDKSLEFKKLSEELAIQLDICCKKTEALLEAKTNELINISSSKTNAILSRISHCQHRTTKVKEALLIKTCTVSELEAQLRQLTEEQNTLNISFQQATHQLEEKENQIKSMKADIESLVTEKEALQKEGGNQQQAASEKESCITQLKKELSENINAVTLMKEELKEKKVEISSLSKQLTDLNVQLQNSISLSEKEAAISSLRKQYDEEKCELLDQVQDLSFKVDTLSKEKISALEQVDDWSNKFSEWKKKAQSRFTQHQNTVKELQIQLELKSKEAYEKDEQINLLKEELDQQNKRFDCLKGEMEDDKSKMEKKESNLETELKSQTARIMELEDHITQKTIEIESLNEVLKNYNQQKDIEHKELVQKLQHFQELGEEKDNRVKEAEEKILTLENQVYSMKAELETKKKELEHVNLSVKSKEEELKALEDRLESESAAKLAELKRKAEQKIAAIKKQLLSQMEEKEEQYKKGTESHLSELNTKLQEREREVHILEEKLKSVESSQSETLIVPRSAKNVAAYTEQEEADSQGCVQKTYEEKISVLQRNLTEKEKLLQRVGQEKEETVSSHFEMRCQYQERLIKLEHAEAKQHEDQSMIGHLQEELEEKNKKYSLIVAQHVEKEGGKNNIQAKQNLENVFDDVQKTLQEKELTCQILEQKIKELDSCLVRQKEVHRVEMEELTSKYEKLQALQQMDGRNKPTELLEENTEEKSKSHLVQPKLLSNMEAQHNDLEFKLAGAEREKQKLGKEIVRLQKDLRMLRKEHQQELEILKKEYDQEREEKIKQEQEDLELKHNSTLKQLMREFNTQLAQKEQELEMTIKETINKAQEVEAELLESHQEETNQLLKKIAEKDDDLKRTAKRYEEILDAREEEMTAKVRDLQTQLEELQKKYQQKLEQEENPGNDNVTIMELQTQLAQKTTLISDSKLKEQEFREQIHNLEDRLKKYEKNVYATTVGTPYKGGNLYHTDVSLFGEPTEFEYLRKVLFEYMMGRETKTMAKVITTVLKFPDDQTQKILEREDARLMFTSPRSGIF
UniProt Q9UBI6: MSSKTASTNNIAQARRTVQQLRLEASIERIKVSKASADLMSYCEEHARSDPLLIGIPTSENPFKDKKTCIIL
UniProt Q9P2T1: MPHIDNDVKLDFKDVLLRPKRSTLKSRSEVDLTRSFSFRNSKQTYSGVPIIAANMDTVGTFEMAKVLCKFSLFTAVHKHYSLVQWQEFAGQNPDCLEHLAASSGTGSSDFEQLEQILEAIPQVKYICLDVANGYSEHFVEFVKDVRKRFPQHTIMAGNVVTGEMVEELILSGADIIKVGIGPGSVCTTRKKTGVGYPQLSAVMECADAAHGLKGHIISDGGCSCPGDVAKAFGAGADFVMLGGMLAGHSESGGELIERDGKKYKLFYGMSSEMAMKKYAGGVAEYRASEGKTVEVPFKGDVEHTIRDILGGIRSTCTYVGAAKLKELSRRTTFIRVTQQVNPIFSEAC
UniProt Q3T906: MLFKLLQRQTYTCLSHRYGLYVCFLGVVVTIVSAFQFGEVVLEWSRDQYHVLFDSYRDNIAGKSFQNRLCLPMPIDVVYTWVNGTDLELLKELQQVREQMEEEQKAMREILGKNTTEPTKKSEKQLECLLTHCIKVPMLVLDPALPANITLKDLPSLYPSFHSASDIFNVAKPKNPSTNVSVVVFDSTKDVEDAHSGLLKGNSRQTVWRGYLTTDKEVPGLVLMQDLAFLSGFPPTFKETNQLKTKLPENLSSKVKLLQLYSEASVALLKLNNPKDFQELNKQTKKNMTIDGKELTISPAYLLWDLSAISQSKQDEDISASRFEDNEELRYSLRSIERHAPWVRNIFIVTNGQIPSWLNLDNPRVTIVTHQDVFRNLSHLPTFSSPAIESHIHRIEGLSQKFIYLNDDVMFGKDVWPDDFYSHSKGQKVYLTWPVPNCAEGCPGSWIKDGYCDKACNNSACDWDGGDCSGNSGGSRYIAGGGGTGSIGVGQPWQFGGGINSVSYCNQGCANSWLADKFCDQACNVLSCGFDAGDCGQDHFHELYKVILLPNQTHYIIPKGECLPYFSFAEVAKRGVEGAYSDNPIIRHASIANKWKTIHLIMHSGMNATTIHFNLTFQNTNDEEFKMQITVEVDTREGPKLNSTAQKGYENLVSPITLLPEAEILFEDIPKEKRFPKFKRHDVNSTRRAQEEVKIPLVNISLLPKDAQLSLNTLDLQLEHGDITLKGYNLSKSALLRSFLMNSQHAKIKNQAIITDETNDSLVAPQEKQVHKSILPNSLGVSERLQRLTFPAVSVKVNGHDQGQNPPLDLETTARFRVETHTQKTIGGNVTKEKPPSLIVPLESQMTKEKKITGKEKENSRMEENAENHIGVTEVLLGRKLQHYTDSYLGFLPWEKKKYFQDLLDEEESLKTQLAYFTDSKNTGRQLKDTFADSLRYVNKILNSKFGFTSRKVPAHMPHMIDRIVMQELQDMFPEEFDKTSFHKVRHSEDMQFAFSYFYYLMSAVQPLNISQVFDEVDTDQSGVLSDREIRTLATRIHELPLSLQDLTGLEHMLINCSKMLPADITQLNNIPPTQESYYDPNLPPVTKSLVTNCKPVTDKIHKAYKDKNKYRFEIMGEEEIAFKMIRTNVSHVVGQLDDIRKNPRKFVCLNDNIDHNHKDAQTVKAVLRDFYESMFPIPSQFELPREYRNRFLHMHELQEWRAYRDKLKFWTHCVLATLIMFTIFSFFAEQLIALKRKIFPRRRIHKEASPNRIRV
UniProt Q86SX6: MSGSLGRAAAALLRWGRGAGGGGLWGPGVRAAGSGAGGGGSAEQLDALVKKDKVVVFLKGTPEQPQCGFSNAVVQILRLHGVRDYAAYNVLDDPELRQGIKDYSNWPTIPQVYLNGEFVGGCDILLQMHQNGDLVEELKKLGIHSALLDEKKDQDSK
UniProt O75496: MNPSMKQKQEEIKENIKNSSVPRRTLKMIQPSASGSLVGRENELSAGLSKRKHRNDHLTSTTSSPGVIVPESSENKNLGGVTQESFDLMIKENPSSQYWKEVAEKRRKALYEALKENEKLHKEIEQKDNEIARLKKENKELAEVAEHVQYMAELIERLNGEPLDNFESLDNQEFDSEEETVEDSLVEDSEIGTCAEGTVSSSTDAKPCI
UniProt P17900: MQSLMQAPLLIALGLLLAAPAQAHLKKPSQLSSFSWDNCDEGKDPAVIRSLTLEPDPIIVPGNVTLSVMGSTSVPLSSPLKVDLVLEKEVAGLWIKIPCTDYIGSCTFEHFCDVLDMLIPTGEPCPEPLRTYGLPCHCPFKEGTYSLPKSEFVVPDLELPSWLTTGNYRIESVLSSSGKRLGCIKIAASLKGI
UniProt Q96IJ6: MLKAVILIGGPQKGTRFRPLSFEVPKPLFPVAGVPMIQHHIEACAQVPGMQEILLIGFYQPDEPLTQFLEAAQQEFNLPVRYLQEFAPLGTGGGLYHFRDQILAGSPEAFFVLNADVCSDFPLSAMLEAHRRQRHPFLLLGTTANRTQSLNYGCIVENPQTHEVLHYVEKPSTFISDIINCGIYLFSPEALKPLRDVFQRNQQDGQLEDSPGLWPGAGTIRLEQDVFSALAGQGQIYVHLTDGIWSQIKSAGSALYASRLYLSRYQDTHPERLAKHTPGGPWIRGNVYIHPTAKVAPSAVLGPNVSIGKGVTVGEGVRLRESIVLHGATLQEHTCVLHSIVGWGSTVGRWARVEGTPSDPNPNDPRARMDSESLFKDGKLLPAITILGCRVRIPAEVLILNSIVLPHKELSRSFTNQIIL
UniProt Q9NU53: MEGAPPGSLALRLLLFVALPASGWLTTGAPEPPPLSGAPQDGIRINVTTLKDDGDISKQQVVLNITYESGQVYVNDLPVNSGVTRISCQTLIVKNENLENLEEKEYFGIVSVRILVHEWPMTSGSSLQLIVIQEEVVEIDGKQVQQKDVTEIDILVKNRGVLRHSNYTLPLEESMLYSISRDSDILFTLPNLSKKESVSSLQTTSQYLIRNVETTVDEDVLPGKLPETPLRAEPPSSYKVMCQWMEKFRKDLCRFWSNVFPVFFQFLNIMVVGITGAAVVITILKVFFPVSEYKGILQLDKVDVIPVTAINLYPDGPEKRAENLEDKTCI
UniProt Q8WWB7: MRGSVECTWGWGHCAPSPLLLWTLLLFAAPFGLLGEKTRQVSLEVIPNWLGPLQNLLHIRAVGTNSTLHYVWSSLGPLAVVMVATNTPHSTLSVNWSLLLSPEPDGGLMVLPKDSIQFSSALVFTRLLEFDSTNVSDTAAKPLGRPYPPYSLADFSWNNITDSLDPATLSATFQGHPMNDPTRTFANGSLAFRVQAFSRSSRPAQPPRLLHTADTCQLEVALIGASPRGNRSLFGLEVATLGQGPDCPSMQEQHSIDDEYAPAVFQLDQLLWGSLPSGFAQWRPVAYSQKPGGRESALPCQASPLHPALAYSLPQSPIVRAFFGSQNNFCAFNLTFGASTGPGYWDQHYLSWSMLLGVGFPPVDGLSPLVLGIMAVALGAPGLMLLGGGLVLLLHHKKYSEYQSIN
UniProt Q9BRR8: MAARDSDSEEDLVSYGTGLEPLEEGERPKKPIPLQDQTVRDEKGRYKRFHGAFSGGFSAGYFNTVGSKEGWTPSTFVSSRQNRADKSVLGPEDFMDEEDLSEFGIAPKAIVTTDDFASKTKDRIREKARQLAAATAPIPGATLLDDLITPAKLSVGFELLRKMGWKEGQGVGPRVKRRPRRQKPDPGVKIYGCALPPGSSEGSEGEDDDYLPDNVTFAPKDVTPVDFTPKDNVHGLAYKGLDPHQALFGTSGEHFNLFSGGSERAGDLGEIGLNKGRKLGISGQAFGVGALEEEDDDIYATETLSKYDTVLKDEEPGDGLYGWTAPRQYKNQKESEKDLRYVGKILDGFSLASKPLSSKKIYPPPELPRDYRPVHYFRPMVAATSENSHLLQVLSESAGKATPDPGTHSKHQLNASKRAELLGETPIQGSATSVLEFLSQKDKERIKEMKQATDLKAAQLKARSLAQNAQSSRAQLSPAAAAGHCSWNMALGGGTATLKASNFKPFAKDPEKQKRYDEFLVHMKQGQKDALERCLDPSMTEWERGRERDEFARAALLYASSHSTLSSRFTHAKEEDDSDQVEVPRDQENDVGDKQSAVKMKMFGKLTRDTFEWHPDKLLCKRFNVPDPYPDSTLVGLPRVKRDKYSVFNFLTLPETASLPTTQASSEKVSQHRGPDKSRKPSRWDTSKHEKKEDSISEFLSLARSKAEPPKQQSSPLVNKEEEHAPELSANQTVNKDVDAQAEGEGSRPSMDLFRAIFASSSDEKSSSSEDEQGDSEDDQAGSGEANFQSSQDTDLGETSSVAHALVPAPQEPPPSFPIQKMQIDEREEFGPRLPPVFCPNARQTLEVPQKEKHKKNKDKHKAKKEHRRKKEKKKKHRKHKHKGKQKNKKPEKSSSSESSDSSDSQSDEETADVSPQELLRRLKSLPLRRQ

Compound: Cc1cn(-c2cc(NC(=O)c3ccc(C)c(Nc4nccc(-c5cccnc5)n4)c3)cc(C(F)(F)F)c2)cn1 [nilotinib]
Experiment: log2 fold change, soluble protein after heating vs DMSO (PISA); higher = thermal stabilisation; K562 lysate, 10 uM; active = over 0.2 and 3.5 SD of the protein, either way, in both replicates (recomputed)
Summary of the method: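 To prepare the extract, K562 pellets were dounce-homogenised in PBS pH 7.4 with 1 mM MgCl2, giving crude material at 1 mg/mL protein. This was treated with 10 μM compound for 30 min, then heated in aliquots for 3 min over 48°C-58°C before pooling and addition of NP-40 to 0.5% at 4°C. Centrifugation at 21,000xg for 90 min left soluble protein in the supernatant, which TMTpro 16plex LC-MS/MS quantified with equalised channel sums. Results are log-two fold changes in thermal stability compared with solvent controls, from duplicates.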

log2 fold change, inactive:
GMEB1 isoform 2 (UniProt Q9Y692) -0.163, GIT1 (UniProt Q9Y2X7) 0.03, GPA33 (UniProt Q99795) -0.085, GGH (UniProt Q92820) 0.049, GLUD1 (UniProt P00367) 0.11, GOLGA4 (UniProt Q13439) -0.199, GNG12 (UniProt Q9UBI6) 0.025, GMPR2 isoform 2 (UniProt Q9P2T1) 0.053, GNPTAB (UniProt Q3T906) -0.381, GNL3L (UniProt Q9NVN8) 0.035, GNAQ (UniProt P50148) 0.032, GLRX5 (UniProt Q86SX6) 0.051, GPATCH11 (UniProt Q8N954) -0.028, GMNN (UniProt O75496) -0.03, GM2A (UniProt P17900) -0.006, GMPPA (UniProt Q96IJ6) 0.006, GOPC (UniProt Q9HD26) -0.016, GPRASP2 (UniProt Q96D09) 0.046, GINM1 (UniProt Q9NU53) 0.066, GMEB1 (UniProt Q9Y692) 0.042, GMIP (UniProt Q9P107) -0.094, GLMP (UniProt Q8WWB7) -0.031, GPATCH1 (UniProt Q9BRR8) 0.032
